Paper doi:10.1101/2024.09.06.611391
No constants are given. Whether binding was seen depends on the method and setting. Some entries that bind do so weakly or less than the wild type.

The chains behind the UniProt entries cited, without tags or fusion partners. Residues count along the entry.
UniProt P05161, residues 1-157: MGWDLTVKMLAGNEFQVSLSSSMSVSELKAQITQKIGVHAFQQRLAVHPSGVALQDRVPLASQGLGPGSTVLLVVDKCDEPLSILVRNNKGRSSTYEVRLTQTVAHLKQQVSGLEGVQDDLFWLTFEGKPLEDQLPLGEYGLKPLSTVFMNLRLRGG
UniProt Q9UPU5: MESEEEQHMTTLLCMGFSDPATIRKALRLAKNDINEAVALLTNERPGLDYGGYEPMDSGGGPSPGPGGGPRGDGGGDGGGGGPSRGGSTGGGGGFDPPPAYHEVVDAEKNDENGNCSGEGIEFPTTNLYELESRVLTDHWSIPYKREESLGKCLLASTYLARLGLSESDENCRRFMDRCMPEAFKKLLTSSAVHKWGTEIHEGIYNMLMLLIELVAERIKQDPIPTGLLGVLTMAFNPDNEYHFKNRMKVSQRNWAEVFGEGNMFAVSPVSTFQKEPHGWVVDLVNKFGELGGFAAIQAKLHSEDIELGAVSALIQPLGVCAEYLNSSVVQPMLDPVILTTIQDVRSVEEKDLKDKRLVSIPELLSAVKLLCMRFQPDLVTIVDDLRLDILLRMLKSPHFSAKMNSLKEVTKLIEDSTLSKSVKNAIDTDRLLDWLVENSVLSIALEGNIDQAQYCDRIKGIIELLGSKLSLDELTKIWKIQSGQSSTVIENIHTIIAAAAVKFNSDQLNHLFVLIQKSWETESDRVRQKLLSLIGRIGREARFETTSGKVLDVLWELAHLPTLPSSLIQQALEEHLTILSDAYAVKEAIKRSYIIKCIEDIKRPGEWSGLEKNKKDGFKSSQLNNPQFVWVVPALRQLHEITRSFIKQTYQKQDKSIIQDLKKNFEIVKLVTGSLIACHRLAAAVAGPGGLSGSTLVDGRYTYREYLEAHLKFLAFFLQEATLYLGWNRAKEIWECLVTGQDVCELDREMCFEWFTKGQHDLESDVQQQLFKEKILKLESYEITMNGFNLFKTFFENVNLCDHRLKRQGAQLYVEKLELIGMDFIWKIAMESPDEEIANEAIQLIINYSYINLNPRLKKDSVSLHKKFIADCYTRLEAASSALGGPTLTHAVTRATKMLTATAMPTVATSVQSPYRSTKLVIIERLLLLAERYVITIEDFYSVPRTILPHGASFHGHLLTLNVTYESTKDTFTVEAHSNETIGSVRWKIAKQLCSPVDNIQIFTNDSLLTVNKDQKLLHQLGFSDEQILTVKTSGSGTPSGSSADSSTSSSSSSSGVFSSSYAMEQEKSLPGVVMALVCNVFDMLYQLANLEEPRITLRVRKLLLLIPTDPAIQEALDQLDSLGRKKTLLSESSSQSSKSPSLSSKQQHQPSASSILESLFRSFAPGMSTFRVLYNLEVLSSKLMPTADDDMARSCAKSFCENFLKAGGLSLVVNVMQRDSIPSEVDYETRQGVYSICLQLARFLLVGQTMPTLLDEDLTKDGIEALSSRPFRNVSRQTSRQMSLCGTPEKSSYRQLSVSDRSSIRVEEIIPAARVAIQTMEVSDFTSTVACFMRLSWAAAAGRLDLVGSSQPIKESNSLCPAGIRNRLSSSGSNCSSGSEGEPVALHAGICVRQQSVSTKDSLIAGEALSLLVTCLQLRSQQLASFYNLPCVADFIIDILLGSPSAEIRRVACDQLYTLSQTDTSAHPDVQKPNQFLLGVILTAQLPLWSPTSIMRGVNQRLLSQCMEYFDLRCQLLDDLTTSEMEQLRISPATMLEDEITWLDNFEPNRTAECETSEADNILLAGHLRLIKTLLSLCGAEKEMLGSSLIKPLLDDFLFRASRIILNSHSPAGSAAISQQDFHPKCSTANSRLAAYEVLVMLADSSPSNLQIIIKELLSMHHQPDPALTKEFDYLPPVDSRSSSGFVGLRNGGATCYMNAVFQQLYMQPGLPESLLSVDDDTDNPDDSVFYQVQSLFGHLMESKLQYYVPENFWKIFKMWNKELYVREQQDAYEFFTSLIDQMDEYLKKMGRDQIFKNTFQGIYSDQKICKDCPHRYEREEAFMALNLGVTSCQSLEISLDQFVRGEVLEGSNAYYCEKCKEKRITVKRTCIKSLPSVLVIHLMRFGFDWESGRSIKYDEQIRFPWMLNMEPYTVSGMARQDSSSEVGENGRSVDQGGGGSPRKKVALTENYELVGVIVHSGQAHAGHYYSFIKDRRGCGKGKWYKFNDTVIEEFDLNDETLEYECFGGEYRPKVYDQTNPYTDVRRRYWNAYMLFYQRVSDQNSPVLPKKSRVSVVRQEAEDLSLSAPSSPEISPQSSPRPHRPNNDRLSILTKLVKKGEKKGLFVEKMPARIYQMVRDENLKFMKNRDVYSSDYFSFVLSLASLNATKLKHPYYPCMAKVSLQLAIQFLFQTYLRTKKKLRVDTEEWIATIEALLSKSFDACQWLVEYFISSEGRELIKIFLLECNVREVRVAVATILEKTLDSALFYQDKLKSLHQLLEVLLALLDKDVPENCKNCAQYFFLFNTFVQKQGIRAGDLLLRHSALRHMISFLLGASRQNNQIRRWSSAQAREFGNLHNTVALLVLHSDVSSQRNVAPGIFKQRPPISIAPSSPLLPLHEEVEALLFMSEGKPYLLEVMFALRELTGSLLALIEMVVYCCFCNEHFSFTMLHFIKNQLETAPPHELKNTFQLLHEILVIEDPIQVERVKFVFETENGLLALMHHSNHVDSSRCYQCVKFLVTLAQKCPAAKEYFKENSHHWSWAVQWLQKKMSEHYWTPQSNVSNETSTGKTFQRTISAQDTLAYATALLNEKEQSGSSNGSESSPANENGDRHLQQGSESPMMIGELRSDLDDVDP

Biological target: untagged human full-length ISG15 propargylamide probe (human) (UniProt P05161)
Assay: covalent activity-based probe labelling

binding: binds
Substance: recombinant full-length human USP24 (from UniProt Q9UPU5 1-2620) (enzyme)
